Measured values taken from paper PMC12803952.
Results are given in words; binding and its absence hold for the method and conditions named. In cells and extracts the contact can be indirect.

Amino acid sequences for entries named in this document (tags omitted). A change or cut given only in a name is not applied to a line headed by its entry.
UniProt O75330: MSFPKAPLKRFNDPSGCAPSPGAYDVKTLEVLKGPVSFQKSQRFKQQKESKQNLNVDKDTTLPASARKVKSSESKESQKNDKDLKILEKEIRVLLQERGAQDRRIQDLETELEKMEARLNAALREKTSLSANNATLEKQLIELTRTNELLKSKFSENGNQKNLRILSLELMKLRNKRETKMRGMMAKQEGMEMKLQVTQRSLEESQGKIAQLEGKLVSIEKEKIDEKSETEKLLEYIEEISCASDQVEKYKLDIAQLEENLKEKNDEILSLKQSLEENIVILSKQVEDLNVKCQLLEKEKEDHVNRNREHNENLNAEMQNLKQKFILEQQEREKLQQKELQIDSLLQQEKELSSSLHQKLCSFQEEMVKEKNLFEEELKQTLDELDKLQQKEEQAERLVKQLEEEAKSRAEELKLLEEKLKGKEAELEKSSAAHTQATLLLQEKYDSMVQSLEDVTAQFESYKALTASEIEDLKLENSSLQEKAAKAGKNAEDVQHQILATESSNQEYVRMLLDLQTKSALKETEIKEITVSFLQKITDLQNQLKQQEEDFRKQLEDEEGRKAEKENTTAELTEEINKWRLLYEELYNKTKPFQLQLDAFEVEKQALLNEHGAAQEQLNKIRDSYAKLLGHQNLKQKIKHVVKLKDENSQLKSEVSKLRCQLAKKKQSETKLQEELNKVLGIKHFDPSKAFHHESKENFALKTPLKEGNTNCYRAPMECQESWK

Target: HMMR^L373A,F374A-GFP (human) (UniProt O75330)
Assay: co-IP; GFP nanobody on Sepharose, IP of HMMR-GFP variants restored in HMMR−/− U2OS cells, asynchronous or mitotic (STLC 5 μM, 16 h); western blot

B1: Scaffold Anchor of CK1 (SACK1) domain-containing protein D (protein, UniProt Q9H4H8 1-585)
chain: MALLSEGLDEVPAACLSPCGPPNPTELFSESRRLALEELVAGGPEAFAAFLRRERLARFLNPDEVHAILRAAERPGEEGAAAAAAAEDSFGSSHDCSSGTYFPEQSDLEPPLLELGWPAFYQGAYRGATRVETHFQPRGAGEGGPYGCKDALRQQLRSAREVIAVVMDVFTDIDIFRDLQEICRKQGVAVYILLDQALLSQFLDMCMDLKVHPEQEKLMTVRTITGNIYYARSGTKIIGKVHEKFTLIDGIRVATGSYSFTWTDGKLNSSNLVILSGQVVEHFDLEFRILYAQSKPISPKLLSHFQSSNKFDHLTNRKPQSKELTLGNLLRMRLARLSSTPRKADLDPEMPAEGKAERKPHDCESSTVSEEDYFSSHRDELQSRKAIDAATQTEPGEEMPGLSVSEVGTQTSITTACAGTQTAVITRIASSQTTIWSRSTTTQTDMDENILFPRGTQSTEGSPVSKMSVSRSSSLKSSSSVSSQGSVASSTGSPASIRTTDFHNPGYPKYLGTPHLELYLSDSLRNLNKERQFHFAGIRSRLNHMLAMLSRRTLFTENHLGLHSGNFSRVNLLAVRDVALYPSYQ
binding: no binding
